Results on seven substances are retold here after paper doi:10.1101/2021.11.03.466924.

What all share (test): affinity purification with mass spectrometry
For one test, the target named is AKiT1-3xHA (P. berghei).
Test [1] concerns the target NUF2-3xHA (P. berghei).
A further test concerns the target SKA2-3xHA (P. berghei).
In test [2] the target is NUF2-3xHA (P. berghei). The source holds these as a separate data set.
For test [3], the target named is tagged AKiT9 (P. berghei).

Where two headings read alike, the source gives them in different places. These are yes or no findings as the source states them, for the method shown. Binding seen in cells or lysates may run through a third protein. These calls come from enrichment with a bait or labelling near it, and not all partners need be listed. For part of these data: No binding means not detected with the bait.

Turning to “AKiT9 (PBANKA_1307000) (from UniProt A0A509AMZ4)”, in the test with AKiT1-3xHA (P. berghei), the binding result is listed as “binds”. As to “STU2 (PBANKA_1337500) (from UniProt A0A509AS96)”, the binding entry in the test with AKiT1-3xHA (P. berghei) is “binds”.

Regarding SEA1 (from UniProt A0A509AGU7), the binding result in the test with AKiT1-3xHA (P. berghei) was “binds”; with NUF2-3xHA (P. berghei) [1] it was “no binding”; with SKA2-3xHA (P. berghei) it was “no binding”; in the test with NUF2-3xHA (P. berghei) [2], “no binding”. For “AKiT11 (PBANKA_0803900) (from UniProt A0A509AI99)”, the binding result (with AKiT1-3xHA (P. berghei); in test [3]) was “binds” in each case. For the substance “PBANKA_1362400 (SKA3) (from UniProt A0A509ARM1)”, in the test with SKA2-3xHA (P. berghei), the binding result is recorded as “binds”.

Consider “AKiT10 (PBANKA_0406000) (from UniProt A0A509AKJ4)”, for which the binding result (with AKiT1-3xHA (P. berghei); in test [3]) was “binds” in each case. “Apicomplexan Kinetochore protein 1 (AKiT1) (from UniProt A0A509AFF7)”: in the test with NUF2-3xHA (P. berghei) [1], the binding entry is “binds”.
